# Test results reported in PMC11538701.
# Protein sequences, listed by entry. Tags and fused reporters are not part of them.
# UniProt P08183: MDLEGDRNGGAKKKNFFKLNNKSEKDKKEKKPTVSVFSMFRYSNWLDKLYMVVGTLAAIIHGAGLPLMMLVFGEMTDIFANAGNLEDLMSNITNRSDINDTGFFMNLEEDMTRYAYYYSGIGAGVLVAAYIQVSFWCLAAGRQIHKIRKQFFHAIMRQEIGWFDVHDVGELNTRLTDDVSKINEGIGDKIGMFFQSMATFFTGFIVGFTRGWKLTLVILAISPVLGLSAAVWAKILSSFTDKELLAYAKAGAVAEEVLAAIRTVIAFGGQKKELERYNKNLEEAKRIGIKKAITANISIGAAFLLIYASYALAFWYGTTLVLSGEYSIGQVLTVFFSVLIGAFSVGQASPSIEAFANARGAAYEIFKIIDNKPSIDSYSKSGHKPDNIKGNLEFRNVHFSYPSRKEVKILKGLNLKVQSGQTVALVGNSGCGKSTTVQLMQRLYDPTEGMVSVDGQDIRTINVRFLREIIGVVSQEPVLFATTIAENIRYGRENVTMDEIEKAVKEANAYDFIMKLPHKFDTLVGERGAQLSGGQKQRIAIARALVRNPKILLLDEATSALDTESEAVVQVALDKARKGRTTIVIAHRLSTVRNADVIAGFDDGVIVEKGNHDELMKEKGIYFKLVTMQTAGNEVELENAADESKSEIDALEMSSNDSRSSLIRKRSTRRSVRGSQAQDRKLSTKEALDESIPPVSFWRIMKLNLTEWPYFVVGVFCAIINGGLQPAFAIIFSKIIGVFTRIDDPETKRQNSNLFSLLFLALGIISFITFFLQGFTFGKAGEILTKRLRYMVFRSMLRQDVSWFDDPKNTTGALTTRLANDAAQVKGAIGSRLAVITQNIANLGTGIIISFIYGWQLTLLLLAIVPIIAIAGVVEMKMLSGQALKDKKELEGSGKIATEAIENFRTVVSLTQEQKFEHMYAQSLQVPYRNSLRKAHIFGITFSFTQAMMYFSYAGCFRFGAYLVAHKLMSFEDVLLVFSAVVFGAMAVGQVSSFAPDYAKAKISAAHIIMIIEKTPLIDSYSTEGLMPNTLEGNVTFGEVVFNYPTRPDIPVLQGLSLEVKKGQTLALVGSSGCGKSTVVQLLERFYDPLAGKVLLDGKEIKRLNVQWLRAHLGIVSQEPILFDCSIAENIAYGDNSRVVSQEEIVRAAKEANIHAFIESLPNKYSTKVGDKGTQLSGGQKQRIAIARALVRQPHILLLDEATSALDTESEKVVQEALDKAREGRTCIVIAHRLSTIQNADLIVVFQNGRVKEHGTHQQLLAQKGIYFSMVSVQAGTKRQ
# Results are given in words; binding and its absence hold for the method and conditions named. In cells and extracts the contact can be indirect. Some results given as binding are weak or reduced against the parent protein; the word gives no strength.
# B1: SEC24A, a core subunit of COPII, endogenous in NCI‐H460 (protein, UniProt O95486 1-1093)
# chain: MSQPGIPASGGAPASLQAQNGAALASGSPYTNGPVQNALLSSQESVSQGYNFQLPGSYPHPIPAKTLNPVSGQSNYGGSQGSGQTLNRPPVASNPVTPSLHSGPAPRMPLPASQNPATTPMPSSSFLPEANLPPPLNWQYNYPSTASQTNHCPRASSQPTVSGNTSLTTNHQYVSSGYPSLQNSFIKSGPSVPPLVNPPLPTTFQPGAPHGPPPAGGPPPVRALTPLTSSYRDVPQPLFNSAVNQEGITSNTNNGSMVVHSSYDEIEGGGLLATPQLTNKNPKMSRSVGYSYPSLPPGYQNTTPPGATGVPPSSLNYPSGPQAFTQTPLGANHLTTSMSGLSLQPEGLRVVNLLQERNMLPSTPLKPPVPNLHEDIQKLNCNPELFRCTLTSIPQTQALLNKAKLPLGLLLHPFKDLVQLPVVTSSTIVRCRSCRTYINPFVSFLDQRRWKCNLCYRVNDVPEEFLYNPLTRVYGEPHRRPEVQNATIEFMAPSEYMLRPPQPPVYLFVFDVSHNAVETGYLNSVCQSLLDNLDLLPGNTRTKIGFITFDSTIHFYGLQESLSQPQMLIVSDIEDVFIPMPENLLVNLNESKELVQDLLKTLPQMFTKTLETQSALGPALQAAFKLMSPTGGRMSVFQTQLPTLGVGALKPREEPNHRSSAKDIHMTPSTDFYKKLALDCSGQQVAVDLFLLSGQYSDLASLGCISRYSAGSVYYYPSYHHQHNPVQVQKLQKELQRYLTRKIGFEAVMRIRCTKGLSIHTFHGNFFVRSTDLLSLPNVNPDAGYAVQMSVEESLTDTQLVSFQSALLYTSSKGERRIRVHTLCLPVVSTLNDVFLGADVQAISGLLANMAVDRSMTASLSDARDALVNAVIDSLSAYRSSVLSNQQPGLMVPFSLRLFPLFVLALLKQKSFQTGTNARLDERIFAMCQVKNQPLVYLMLTTHPSLYRVDNLSDEGALNISDRTIPQPPILQLSVEKLSRDGAFLMDAGSVLMLWVGKNCTQNFLSQVLGVQNYASIPQPMTDLPELDTPESARIIAFISWLREQRPFFPILYVIRDESPMKANFLQNMIEDRTESALSYYEFLLHIQQQVNK
# Experiments:
# [1] = target: PD‐L1‐HA (programmed death‐ligand 1, HA-tagged), expressed in NCI‐H460 (UniProt Q9NZQ7); experiment: co-IP; NCI‐H460 cells transfected with PD‐L1‐HA plasmid for 24 h, then treated with zosuquidar and chloroquine (CQ); lysates immunoprecipitated with anti‐HA affinity beads; blots for SARs
# [2] = target: ABCB1 (ATP binding cassette subfamily B member 1), endogenous in NCI‐H460 (human (endogenous in NCI‐H460)) (UniProt P08183); experiment: co-IP; NCI‐H460 lysate (1% NP‐40, 150 mM NaCl, pH 7.4) immunoprecipitated with ABCB1 antibody, protein A/G beads; untreated, or treated with zosuquidar, tariquidar or elacridar in the presence of CQ for 12 h
# [3] = target: PD‐L1‐HA (programmed death‐ligand 1, HA-tagged), expressed in HEK293T (UniProt Q9NZQ7); experiment: co-IP; HEK293T transfected with PD‐L1‐HA and ABCB1 plasmid; lysate (1% NP‐40, 150 mM NaCl, pH 7.4) incubated with anti‐HA affinity beads at 4 °C overnight
# [4] = target: PD‐L1 (programmed death‐ligand 1), endogenous in NCI‐H460 (human (endogenous in NCI‐H460)) (UniProt Q9NZQ7); experiment: co-IP; NCI‐H460 cells transfected with vector or ABCB1 plasmid in the presence of CQ for 12 h; lysates immunoprecipitated with PD‐L1 antibody
# [5] = target: PD‐L1 (programmed death‐ligand 1), endogenous in NCI‐H460 (human (endogenous in NCI‐H460)) (UniProt Q9NZQ7); experiment: co-IP; NCI‐H460 cells treated with zosuquidar and CQ (20 x 10^-6 M) for 12 h; lysates (1% NP‐40, 150 mM NaCl, pH 7.4) immunoprecipitated with PD‐L1 antibody, protein A/G beads
molecule,measurement,setting,value
"SQSTM1 (sequestosome 1), endogenous in NCI‐H460 (from UniProt Q13501 1-440)",binding,[1],binds
"PD‐L1 (programmed death‐ligand 1), endogenous in NCI‐H460 (from UniProt Q9NZQ7 19-290)",binding,[2],binds
"ABCB1 (ATP binding cassette subfamily B member 1), from plasmid in HEK293T (from UniProt P08183 1-1280)",binding,[3],binds
B1,binding,[4],binds
same,binding,[5],binds
